Taken from: PubChem BioAssay AID504786 (Drosophila RNAi Screening Center, 2011)
Test: 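Knock-downs reducing HIF reporter induction by the iron chelator DFO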 (primary screen). Cell system: Drosophila S2 cells with a stable HIF luciferase reporter. Reagents: long dsRNA against Drosophila genes, about 0.2 µg dsRNA per well of a 384-well plate. Time to read-out: three days of knock-down, then 20 h of DFO before reading. Conditions: desferrioxamine (DFO) at 100 µM, an iron chelator that mimics hypoxia, for 20 h. Detection: 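Firefly luciferase driven by the mouse ldh-a hypoxia-response element, measured after 20 h of 100 µM DFO; z-scores per plate, higher means more signal lost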. Reading the numbers: z-score: higher = stronger loss of HIF reporter signal.
The screen tested about 21,000 reagents; shown is an unselected part of those that have a named target and a result. 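Primary screen; positive scores mean lost reporter signal, so the sign may be inverted from the usual convention.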 Names joined by + are all predicted targets of the reagent.

| Gene | amplicon | z-score, replicate 1 | z-score, replicate 2 | z-score, replicate 3 | z-score, replicate 4 |
| --- | --- | --- | --- | --- | --- |
| LysD + LysB + LysC (retired record) | DRSC21249 | -0.2 | -0.2 | – | – |
| mars (GeneID 36498) | DRSC06656 | -0.2 | -0.1 | 0 | -0.2 |
| CG9008 (GeneID 34779) | DRSC01889 | -0.4 | -0.5 | – | – |
| Ttc1 (GeneID 41993) | DRSC15016 | -0.2 | 0.1 | – | – |
| Moca-cyp (GeneID 43374) | DRSC15364 | -0.4 | -0.3 | – | – |
| Art6 (GeneID 41699) | DRSC16583 | -0.4 | -0.3 | – | – |
| ver (GeneID 39432) | DRSC10125 | -0.1 | -0.3 | – | – |
| CG4239 (GeneID 32606) | DRSC19885 | -0.4 | -0.4 | – | – |
| Mic26-27 (GeneID 41959) | DRSC15913 | -0.2 | -0.3 | – | – |
| alphaTub84B (GeneID 40848) | DRSC12622 | 1.6 | 2.8 | – | – |
| CG16734 (GeneID 41100) | DRSC15143 | 0.3 | 1.8 | – | – |
| Ace (GeneID 41625) | DRSC12959 | -0.2 | -0.3 | – | – |
| Ace (GeneID 41625) | DRSC14100 | -0.2 | 0.3 | – | – |
| CG11694 (GeneID 40985) | DRSC14354 | -0.2 | 0 | – | – |
| CG12171 (GeneID 40690) | DRSC12200 | -0.4 | -0.6 | – | – |
| Eb1 (GeneID 35584) | DRSC05016 | -0.2 | 0.3 | – | – |
| ast (GeneID 33282) | DRSC00803 | -0.1 | -0.3 | – | – |
| CG13575 (GeneID 37883) | DRSC04211 | 0 | -0.1 | – | – |
| Ect3 (GeneID 41457) | DRSC15462 | -0.3 | -0.4 | – | – |
| dpr15 (GeneID 41473) | DRSC12891 | -0.2 | -0.1 | – | – |
| dpr15 (GeneID 41473) | DRSC14187 | -0.2 | 1.7 | – | – |
| dpr15 (GeneID 41473) | DRSC14188 | -0.5 | -0.4 | – | – |
| Ir54a + sub | DRSC06459 | -0.3 | -0.2 | – | – |
| Apc2 (GeneID 42871) | DRSC14115 | -0.2 | -0.1 | – | – |
| CG1137 (GeneID 40803) | DRSC12529 | -0.3 | -0.2 | – | – |
| RluA-2 (GeneID 34440) | DRSC02939 | -0.2 | -0.4 | – | – |
| cos (GeneID 35653) | DRSC07598 | -0.3 | -0.7 | – | – |
| Top3alpha (GeneID 35236) | DRSC03460 | -0.2 | -0.4 | – | – |
| simj (GeneID 39212) | DRSC10942 | 1.6 | 1.1 | – | – |
| wek (GeneID 48785) | DRSC03561 | -0.2 | -0.1 | – | – |
| mh (GeneID 32480) | DRSC20168 | 0 | -0.2 | – | – |
| eEF1beta (GeneID 45249) | DRSC07419 | -0.3 | -0.4 | – | – |
| CG2540 (GeneID 32216) | DRSC19856 | -0.4 | -0.4 | – | – |
| CG8152 (GeneID 36696) | DRSC07083 | -0.1 | -0.4 | – | – |

Records above whose gene name begins with D or d:
| Gene | amplicon | z-score, replicate 1 | z-score, replicate 2 | z-score, replicate 3 | z-score, replicate 4 |
| --- | --- | --- | --- | --- | --- |
| dpr15 (GeneID 41473) | DRSC12891 | -0.2 | -0.1 | – | – |
| dpr15 (GeneID 41473) | DRSC14187 | -0.2 | 1.7 | – | – |
| dpr15 (GeneID 41473) | DRSC14188 | -0.5 | -0.4 | – | – |
